The text below walks through data of publication doi:10.1101/2025.02.28.640789.

The chains behind the UniProt entries cited, without tags or fusion partners.
UniProt P01106: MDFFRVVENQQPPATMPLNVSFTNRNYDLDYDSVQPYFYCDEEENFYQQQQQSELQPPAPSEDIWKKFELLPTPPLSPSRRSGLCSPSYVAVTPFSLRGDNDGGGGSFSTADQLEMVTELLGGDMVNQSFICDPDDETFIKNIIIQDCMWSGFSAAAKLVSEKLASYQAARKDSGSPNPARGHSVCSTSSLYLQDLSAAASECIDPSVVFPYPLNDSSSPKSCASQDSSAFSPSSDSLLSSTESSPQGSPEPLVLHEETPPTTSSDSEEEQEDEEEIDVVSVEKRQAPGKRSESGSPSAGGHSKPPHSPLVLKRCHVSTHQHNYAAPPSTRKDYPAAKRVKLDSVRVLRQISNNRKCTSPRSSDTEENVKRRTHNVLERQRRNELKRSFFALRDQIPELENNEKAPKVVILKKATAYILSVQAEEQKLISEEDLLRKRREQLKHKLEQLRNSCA
UniProt P04198: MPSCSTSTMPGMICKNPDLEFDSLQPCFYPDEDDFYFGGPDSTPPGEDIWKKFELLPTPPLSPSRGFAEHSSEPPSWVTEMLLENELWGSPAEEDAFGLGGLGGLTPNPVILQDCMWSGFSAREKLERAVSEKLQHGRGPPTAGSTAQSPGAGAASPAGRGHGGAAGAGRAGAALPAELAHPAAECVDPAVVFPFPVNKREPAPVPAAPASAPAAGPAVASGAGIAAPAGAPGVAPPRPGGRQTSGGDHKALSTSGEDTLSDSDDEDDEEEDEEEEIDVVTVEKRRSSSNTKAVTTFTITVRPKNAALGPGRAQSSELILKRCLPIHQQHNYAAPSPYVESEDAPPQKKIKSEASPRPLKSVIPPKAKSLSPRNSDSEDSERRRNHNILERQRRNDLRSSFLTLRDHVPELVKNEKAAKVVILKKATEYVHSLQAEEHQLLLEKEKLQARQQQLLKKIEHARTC

Experiment [1] concerns the target MYC (human (endogenous in HCT116)) (UniProt P01106). In words: proximity ligation.
A further experiment deals with MYCN (UniProt P04198). The experiment in a line: proximity ligation.

No constants are given. Whether binding was seen depends on the method and setting. Binding seen in cells or lysates may run through a third protein. Some binding calls cover weakened binding; strength is not graded here. For some assays here: Tags and fused reporters may be left off the sequences shown.

B1: CDCA2 endogenously tagged with an auxin degron module (AID) in HCT116 cells (protein, UniProt Q69YH5 1-1023)
chain: MDANSKDKPPETKESAMNNAGNASFILGTGKIVTPQKHAELPPNPCTPDTFKSPLNFSTVTVEQLGITPESFVRNSAGKSSSYLKKCRRRSAVGARGSPETNHLIRFIARQQNIKNARKSPLAQDSPSQGSPALYRNVNTLRERISAFQSAFHSIKENEKMTGCLEFSEAGKESEMTDLTRKEGLSACQQSGFPAVLSSKRRRISYQRDSDENLTDAEGKVIGLQIFNIDTDRACAVETSVDLSEISSKLGSTQSGFLVEESLPLSELTETSNALKVADCVVGKGSSDAVSPDTFTAEVSSDAVPDVRSPATPACRRDLPTPKTFVLRSVLKKPSVKMCLESLQEHCNNLYDDDGTHPSLISNLPNCCKEKEAEDEENFEAPAFLNMRKRKRVTFGEDLSPEVFDESLPANTPLRKGGTPVCKKDFSGLSSLLLEQSPVPEPLPQPDFDDKGENLENIEPLQVSFAVLSSPNKSSISETLSGTDTFSSSNNHEKISSPKVGRITRTSNRRNQLVSVVEESVCNLLNTEVQPCKEKKINRRKSQETKCTKRALPKKSQVLKSCRKKKGKGKKSVQKSLYGERDIASKKPLLSPIPELPEVPEMTPSIPSIRRLGSGYFSSNGKLEEVKTPKNPVKRKDLLRHDPDLHMHQGYDKYDVSEFCSYIKSSSSLGNATSDEDPNTNIMNINENKNIPKAKNKSESENEPKAGTDSPVSCASVTEERVASDSPKPALTLQQGQEFSAGGQNAENLCQFFKISPDLNIKCERKDDFLGAAEGKLQCNRLMPNSQKDCHCLGDVLIENTKESKSQSEDLGRKPMESSSVVSCRDRKDRRRSMCYSDGRSLHLEKNGNHTPSSSVGSSVEISLENSELFKDLSDAIEQTFQRRNSETKVRRSTRLQKDLENEGLVWISLPLPSTSQKAKRRTICTFDSSGFESMSPIKETVSSRQKPQMAPPVSDPENSQGPAAGSSDEPGKRRKSFCISTLANTKATSQFKGYRRRSSLNGKGESSLTALERIEHNGERKQ
Regarding B1, the binding entry in experiment [1] is “binds”.

B2: CDCA2 (protein, UniProt Q69YH5 1-1023)
chain: B1 chain
On to B2, for which the binding result with MYCN was “binds”.
